Results are given in words; binding and its absence hold for the method and conditions named. A result given as binding can be weak or reduced; the word gives no strength.
B1: Npr2 (natural protein, UniProt P39923 1-615, looked up)
chain: MLSYFQGFVPIHTIFYSVFHPTEGSKIKYEFPPNNLKNHGINFNTFKNYIIPKPILCHKLITFKYGTYRIVCYPVTINSPIYARNFFSFNFVFVFPYDCETSPYEPAITRLGKMFKVLEEQNQLLSKSERDPVFFDLKVLENSTTTPSTAGPSSTPNPSSNTTPTHPTSEKDTKDMRSSRYSDLIKDLGLPQSAFSIQDLLMRIFQDLNNYSECLIPIDEGNAVDIKIFPLLRPPTTCVSLEDVPLSSVNLKKIIDVNWDPTMMSIVPYIDGLNSIAKISKLSNSDPGLVIECIRHLIYYKCVTLSDIFQFSNIYAPSSLIRNFLTDPLMASDCQSYVTFPEVSKISNLPLNKSLGSGDQDSPSFSVRRKSKSSSIPSNPDSRTTSFSSTSRVSQNSSLNSSFSSIYKDWRQSQTSCSSSNIHVINNRNRFLPTRSCLFDLYRSLSQGQTLKTWYESKYMILKENNIDIRRFITFGLEKRIIYRCYSFPVMINAGSREPKEMTPIITKDLVNNDKLLEKRNHNHLLSATGSRNTAQSGNLKPERPSKVSFEMQRVSSLATGKSTMPKLSDEEEGILEESIRNAETFDKICVLLSKPKLEVESYLNELGEFKVINS
notes: Npr2, S. cerevisiae, endogenous subunit of the SEAC (SEACIT, wing); Native protein of the purified complex; two copies in the SEAC; source: endogenous, yeast cells expressing Sea4-TAP or Sea1-TAP; in lysate and co-purified with the tagged subunit (IgG Dynabeads, TEV elution)

How the values were obtained:
Test in all cases: cryo-EM structure; endogenous SEAC purified from yeast via Sea4-TAP (IgG Dynabeads, TEV elution in 20 mM HEPES-NaOH pH 7.4, 300 mM NaCl, 2 mM DTT), on graphene-oxide-coated grids; both purified
[1] = target: T1, Sea3 (S. cerevisiae (endogenous in yeast cells)) (UniProt Q03897)
T1 sequence: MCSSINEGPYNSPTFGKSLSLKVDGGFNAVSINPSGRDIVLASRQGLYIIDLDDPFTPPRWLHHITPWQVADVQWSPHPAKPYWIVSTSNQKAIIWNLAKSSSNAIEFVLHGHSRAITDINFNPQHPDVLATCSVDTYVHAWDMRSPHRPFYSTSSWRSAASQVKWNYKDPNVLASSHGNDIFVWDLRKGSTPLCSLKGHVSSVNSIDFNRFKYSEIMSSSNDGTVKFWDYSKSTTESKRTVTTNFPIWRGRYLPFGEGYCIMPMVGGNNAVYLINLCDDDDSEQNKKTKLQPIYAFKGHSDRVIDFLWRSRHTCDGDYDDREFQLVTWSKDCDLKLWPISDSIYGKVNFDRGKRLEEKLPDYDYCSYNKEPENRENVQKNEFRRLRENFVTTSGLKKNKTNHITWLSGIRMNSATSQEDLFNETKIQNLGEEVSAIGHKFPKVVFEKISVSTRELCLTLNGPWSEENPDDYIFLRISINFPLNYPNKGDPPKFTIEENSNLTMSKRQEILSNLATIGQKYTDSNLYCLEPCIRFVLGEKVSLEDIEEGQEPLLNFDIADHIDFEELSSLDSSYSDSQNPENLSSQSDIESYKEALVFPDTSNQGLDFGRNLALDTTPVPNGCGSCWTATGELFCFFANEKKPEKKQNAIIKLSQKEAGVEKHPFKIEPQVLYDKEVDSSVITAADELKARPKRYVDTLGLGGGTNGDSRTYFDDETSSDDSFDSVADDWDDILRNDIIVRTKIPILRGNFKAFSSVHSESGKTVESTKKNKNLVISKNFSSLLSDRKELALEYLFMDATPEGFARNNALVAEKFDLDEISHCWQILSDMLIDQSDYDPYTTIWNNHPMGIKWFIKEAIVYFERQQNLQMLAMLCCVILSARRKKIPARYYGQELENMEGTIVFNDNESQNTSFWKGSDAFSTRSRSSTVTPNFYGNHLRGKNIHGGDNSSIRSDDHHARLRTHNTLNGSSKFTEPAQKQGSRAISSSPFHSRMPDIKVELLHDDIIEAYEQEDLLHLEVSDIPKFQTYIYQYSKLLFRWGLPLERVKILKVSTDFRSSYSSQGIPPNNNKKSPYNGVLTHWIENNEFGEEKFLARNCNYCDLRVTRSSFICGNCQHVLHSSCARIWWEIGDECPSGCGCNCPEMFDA

[2] = target: T2, Sea4-TAP (S. cerevisiae (endogenous in yeast cells)) (UniProt P38164)
T2 sequence: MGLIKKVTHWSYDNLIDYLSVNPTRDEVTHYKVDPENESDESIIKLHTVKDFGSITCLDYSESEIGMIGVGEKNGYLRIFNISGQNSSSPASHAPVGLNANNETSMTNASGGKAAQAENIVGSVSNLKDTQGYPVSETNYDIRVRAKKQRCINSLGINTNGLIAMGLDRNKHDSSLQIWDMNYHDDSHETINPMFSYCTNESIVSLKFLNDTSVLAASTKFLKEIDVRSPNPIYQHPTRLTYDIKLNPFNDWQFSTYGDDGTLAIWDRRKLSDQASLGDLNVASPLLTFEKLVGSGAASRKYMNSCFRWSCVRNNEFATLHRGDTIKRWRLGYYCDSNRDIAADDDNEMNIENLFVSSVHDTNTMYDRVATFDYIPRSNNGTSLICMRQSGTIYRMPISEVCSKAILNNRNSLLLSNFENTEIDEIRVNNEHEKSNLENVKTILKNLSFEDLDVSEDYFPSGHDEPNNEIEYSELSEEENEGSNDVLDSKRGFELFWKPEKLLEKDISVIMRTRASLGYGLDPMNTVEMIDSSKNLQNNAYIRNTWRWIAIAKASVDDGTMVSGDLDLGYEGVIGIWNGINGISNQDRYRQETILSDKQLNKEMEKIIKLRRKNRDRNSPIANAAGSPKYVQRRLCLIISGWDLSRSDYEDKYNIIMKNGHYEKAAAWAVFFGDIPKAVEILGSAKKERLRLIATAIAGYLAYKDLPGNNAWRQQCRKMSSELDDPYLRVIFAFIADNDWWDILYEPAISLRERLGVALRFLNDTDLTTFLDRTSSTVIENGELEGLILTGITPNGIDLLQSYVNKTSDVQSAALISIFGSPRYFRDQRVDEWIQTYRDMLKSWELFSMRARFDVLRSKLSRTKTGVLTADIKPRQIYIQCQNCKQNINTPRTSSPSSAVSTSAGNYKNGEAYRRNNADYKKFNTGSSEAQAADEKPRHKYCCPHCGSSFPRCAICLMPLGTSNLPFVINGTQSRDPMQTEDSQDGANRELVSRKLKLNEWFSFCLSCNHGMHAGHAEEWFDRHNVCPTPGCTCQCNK

[3] = target: Npr3 (S. cerevisiae (endogenous in yeast cells))

Molecule	binding [1]	binding [2]	binding [3]
Npr3	binds	binds	–
B1	–	–	binds
